Earlier results, collected in patent publication US20180085295A1, “Hair Growth Composition” (priority 2016, published 2018).
At least one compound was matched to its structure with a doubt left.

System: terminal hair growth
Conditions: after four months of treatment

Nc1cc(N2CCCCC2)nc(N)[n+]1[O-] [minoxidil]
increase in terminal hair growth between minoxidil and placebo treatment groups: no significant increase in terminal hair growth
